At least one compound was matched to its structure with a doubt left.
Key:
Type in all cases: in vivo, rats
[1] = system: high-grade anaplastic oligodendrocytoma that relapsed after surgery and on which the standard therapy failed; assay: Tumor inhibition rate in animal model of high-grade anaplastic oligodendrocytoma; details: summary of the anaplastic oligodendrocytoma model table
Experimental: (§1) 1.1 Cell culture: The pathological tissue for cell culture was a tissue sample removed surgically from high-grade brain tumor that relapsed after surgery and on which the standard therapy failed. Glioblasts cells, high-grade anaplastic astrocytoma cells, high-grade anaplastic oligodendrocytoma cells, high-grade anaplastic oligoastrocytoma cells, and brain tumor cells with unclear pathological types, obtained by separation and culture of pathological tissue, were seeded in DMEM complete culture medium containing 10% FBS and routinely incubated in a 37° C., 5% carbon dioxide incubator under saturated humidity. TMZ was dissolved in DMSO solution, and the mass concentration of the stock solution was 100 mg/mL. Tumor cells in the logarithmic growth phase were diluted to obtain a cell suspension at 1×10^5 cells/mL, and the initial inducer dose 0.25 μg/mL of TMZ was added after routinely culturing for 24 h. […]
(§2) The cell suspension obtained in step 1 was inoculated into rats in situ, to prepare animal models of high-grade anaplastic oligodendrocytoma that relapsed after surgery and on which the standard therapy failed, and the animals were divided into test groups listed in the following table. […] The tumor inhibition rate was calculated.

[2] = system: high-grade anaplastic oligoastrocytoma that relapsed after surgery and on which the standard therapy failed; assay: Tumor inhibition rate in animal model of high-grade anaplastic oligoastrocytoma; details: summary of the anaplastic oligoastrocytoma model table
Experimental: as §1
as §2, with “oligoastrocytoma” for “oligodendrocytoma”

[3] = system: high-grade anaplastic astrocytoma that relapsed after surgery and on which the standard therapy failed; assay: Tumor inhibition rate in animal model of high-grade anaplastic astrocytoma; details: summary of the anaplastic astrocytoma model table
Experimental: as §1
as §2, with “astrocytoma” for “oligodendrocytoma”

[4] = system: glioblastoma that relapsed after surgery and on which the standard therapy failed; assay: Tumor inhibition rate in animal model of glioblastoma; details: summary of the glioblastoma model table
Experimental: as §1
as §2, with “glioblastoma” for “high-grade anaplastic oligodendrocytoma”

Measured: therapeutic effect in words

Cn1nnc2c(C(N)=O)ncn2c1=O [temozolomide]
the effect was poor: all assays above

Reference: patent US20210161866A1, “DRUG FOR USE IN COMBINATION, AND USE THEREOF FOR PREPARING DRUGS FOR TREATMENT OF HIGH-GRADE BRAIN TUMORS IN RESPONSE TO INEFFECTIVE STANDARD TREATMENT FOR POSTOPERATIVE RECURRENCE” (SICHUAN JIUZHANG BIOLOGICAL SCIENCE AND TECHNOLOGY CO., LTD., priority 2018, published 2021)
